In the assay the target is C. sporogenes MotA (residues 1–262, of the MotA1–262-FliG239–333 fusion) (Clostridium sporogenes). Kind of assay: cryo-EM structure; C. sporogenes MotA1–262-FliG239–333 fusion co-expressed with MotB-Twin-Strep in E. coli, purified in LMNG; 2.4 Å map; both purified.

This note sets out measurements from paper PMC11302681, “Structural Basis of Directional Switching by the Bacterial Flagellum” (Research Square, 2023).

No constants are given. Whether binding was seen depends on the method and setting. A result given as binding can be weak or reduced; the word gives no strength. Tags and fused reporters may be left off the sequences shown.

B1: C. sporogenes FliG C-terminal domain (residues 239–333, of the MotA1–262-FliG239–333 fusion) (domain or fragment, UniProt A0A7X5SWG7 239-333)
chain: VFEDIITLDDVAIQRVLREVETKDLALALKGSSEEVANVIFRNQSKRAASSLKEDIEFLGPVRIMDVEKAQQGIVSIIRRLDEAGEIVISRGGED
B1: the binding result is “binds”.
